Source: patent publication US8673841B2 (Ferring B.V., priority 2008, dated 2014)

Experiment: general procedure: peptide synthesis; Rink Amide AM resin or MBHA resin; DIC/HOBt/DMF (Fmoc amino acids); DIC or DCC in DCM (Boc amino acids)
Settings: whole synthesis

For [4-PicGly^7]dOT, the isolated mass was 348.7 mg, the “final HPLC purity” value (analytical HPLC, Vydac C18, 1100 Agilent, scale of the general procedure 0.87 mmol, 0.94 mmol) was 99.9% and the isolated yield (based on the loading of the starting resin and assuming 85% peptide content, scale of the general procedure 0.87 mmol, 0.94 mmol) was “˜44%”.
